Results: the supplement of paper PMC10849652
The list shows a part of the results.

The chains behind the UniProt entries cited, without tags or fusion partners. Where a name states a change or a piece, a line headed by the entry shows the natural chain unless it says otherwise.
UniProt Q02161: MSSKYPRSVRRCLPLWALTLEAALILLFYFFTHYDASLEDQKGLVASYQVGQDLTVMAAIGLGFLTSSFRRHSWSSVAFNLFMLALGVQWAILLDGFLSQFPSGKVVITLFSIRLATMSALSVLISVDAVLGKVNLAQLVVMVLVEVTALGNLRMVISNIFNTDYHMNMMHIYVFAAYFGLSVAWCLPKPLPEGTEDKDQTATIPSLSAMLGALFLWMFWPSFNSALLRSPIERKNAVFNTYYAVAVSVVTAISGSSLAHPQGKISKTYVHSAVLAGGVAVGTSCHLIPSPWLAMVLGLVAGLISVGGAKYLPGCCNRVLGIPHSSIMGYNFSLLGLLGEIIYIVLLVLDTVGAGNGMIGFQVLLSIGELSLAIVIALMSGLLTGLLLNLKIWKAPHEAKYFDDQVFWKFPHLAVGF
UniProt Q9Y225: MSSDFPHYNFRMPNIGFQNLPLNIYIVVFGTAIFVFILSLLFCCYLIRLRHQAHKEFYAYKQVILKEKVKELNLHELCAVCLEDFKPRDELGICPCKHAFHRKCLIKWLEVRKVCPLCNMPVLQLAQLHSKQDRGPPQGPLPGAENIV
UniProt Q15493: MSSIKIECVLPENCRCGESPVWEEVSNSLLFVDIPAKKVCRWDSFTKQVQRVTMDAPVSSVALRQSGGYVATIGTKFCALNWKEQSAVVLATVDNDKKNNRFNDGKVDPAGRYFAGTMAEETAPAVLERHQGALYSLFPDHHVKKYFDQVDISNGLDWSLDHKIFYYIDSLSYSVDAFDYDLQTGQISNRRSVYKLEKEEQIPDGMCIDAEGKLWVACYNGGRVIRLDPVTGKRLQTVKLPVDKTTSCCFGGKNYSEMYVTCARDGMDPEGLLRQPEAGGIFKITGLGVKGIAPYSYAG
UniProt Q5VTB9: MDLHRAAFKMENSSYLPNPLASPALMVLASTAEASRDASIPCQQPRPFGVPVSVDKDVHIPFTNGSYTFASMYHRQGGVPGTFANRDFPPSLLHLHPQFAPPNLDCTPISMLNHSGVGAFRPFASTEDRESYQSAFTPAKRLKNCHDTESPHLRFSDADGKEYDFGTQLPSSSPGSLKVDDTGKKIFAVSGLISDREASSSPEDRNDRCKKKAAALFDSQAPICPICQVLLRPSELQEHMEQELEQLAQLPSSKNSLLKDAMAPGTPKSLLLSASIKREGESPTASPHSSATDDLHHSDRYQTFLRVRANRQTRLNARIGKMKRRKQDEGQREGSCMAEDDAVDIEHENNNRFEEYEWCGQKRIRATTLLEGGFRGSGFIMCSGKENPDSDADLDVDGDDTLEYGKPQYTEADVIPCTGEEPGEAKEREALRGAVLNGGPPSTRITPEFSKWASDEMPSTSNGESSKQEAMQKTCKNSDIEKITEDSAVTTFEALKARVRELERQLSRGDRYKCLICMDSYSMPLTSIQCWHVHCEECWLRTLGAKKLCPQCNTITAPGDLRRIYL
UniProt A6NEQ0: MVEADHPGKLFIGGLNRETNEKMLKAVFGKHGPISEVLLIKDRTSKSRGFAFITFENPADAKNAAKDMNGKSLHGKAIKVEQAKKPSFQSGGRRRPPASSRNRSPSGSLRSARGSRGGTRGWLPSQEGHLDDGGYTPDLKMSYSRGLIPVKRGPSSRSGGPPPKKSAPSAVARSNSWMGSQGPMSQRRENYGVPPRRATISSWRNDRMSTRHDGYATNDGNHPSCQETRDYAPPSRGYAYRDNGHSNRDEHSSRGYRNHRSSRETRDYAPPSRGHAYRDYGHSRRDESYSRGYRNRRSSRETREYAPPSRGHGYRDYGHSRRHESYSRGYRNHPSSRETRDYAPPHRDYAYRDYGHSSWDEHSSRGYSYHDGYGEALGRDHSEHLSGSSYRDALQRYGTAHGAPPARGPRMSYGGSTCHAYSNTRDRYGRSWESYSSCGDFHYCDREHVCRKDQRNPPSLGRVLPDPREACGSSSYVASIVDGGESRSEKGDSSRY
UniProt Q06587: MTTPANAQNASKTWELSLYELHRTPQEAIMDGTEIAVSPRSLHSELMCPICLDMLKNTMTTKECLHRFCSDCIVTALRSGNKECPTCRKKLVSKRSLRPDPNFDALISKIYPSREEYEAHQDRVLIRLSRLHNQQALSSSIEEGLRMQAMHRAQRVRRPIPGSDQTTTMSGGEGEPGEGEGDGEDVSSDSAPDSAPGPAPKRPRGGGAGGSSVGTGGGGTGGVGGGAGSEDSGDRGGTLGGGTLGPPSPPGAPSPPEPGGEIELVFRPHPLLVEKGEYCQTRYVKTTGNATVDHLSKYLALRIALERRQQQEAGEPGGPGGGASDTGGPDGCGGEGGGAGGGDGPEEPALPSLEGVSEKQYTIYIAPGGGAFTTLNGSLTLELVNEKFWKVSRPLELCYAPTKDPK
UniProt Q5RL73: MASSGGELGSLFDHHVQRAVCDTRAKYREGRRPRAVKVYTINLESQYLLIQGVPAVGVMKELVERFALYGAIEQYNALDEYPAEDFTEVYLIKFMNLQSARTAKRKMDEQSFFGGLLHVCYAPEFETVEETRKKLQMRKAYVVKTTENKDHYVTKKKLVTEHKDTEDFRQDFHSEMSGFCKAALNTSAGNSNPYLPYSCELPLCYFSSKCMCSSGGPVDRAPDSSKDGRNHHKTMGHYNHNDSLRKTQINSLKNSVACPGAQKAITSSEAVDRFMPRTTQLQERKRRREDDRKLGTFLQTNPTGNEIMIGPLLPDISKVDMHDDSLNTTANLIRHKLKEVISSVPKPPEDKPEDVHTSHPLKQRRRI
UniProt Q8NCN4: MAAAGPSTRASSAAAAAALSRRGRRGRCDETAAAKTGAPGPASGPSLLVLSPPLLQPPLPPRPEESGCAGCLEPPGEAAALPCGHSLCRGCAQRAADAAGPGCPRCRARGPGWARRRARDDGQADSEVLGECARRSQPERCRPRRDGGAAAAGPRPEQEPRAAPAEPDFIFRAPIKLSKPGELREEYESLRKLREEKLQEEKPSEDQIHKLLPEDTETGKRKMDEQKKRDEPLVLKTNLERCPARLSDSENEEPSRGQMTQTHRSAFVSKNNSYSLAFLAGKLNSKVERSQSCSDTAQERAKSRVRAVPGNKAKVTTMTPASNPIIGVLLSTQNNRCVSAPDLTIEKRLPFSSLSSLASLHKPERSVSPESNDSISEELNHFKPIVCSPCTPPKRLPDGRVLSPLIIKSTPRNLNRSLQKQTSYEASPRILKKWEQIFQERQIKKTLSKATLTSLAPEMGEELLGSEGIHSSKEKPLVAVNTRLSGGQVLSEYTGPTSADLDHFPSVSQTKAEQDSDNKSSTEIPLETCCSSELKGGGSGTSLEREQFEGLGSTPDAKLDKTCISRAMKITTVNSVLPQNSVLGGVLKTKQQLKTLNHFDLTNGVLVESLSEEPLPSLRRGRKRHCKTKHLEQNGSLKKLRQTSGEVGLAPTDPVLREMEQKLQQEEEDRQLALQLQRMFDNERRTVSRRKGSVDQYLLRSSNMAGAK
UniProt P0C7M4: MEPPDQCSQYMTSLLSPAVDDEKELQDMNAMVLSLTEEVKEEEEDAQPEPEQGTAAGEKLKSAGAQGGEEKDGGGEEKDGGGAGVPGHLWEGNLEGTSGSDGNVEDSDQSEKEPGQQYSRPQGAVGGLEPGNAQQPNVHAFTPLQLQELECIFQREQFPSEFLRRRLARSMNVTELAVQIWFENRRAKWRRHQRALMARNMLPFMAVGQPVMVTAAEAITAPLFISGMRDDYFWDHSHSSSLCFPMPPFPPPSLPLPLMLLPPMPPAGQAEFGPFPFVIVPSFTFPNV
UniProt P34096: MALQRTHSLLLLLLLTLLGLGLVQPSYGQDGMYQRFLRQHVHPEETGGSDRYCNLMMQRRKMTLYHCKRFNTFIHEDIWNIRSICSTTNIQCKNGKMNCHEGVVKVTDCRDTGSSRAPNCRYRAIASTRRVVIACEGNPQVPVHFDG
UniProt Q96K19: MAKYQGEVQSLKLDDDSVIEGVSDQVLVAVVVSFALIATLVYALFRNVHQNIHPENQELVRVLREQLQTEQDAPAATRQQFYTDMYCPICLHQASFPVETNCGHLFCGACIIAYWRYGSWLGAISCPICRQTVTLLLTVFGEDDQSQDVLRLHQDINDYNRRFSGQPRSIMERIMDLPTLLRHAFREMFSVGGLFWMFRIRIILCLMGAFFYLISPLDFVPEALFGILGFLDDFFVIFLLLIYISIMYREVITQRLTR
UniProt Q96GF1: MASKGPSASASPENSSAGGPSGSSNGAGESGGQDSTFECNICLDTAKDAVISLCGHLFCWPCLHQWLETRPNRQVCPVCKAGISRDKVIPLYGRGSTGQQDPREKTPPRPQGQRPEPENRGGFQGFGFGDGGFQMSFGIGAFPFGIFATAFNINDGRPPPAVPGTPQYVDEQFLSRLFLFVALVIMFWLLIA
UniProt Q9ULI2: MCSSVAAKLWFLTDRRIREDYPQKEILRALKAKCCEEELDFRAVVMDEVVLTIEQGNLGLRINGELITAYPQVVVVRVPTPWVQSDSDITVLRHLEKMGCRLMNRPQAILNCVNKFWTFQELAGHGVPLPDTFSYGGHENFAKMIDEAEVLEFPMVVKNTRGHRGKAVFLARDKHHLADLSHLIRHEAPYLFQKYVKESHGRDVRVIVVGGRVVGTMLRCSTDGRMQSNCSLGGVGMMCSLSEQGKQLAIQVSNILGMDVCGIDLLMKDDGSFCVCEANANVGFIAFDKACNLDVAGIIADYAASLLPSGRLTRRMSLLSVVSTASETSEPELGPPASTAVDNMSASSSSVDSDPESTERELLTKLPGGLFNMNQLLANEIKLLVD
UniProt Q8WVD5: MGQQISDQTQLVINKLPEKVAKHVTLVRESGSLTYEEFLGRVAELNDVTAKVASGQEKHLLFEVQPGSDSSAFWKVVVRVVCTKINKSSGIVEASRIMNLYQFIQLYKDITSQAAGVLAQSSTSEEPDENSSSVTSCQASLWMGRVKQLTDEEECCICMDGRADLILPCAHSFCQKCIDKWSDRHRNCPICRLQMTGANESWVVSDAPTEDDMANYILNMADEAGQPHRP
UniProt Q86XS8: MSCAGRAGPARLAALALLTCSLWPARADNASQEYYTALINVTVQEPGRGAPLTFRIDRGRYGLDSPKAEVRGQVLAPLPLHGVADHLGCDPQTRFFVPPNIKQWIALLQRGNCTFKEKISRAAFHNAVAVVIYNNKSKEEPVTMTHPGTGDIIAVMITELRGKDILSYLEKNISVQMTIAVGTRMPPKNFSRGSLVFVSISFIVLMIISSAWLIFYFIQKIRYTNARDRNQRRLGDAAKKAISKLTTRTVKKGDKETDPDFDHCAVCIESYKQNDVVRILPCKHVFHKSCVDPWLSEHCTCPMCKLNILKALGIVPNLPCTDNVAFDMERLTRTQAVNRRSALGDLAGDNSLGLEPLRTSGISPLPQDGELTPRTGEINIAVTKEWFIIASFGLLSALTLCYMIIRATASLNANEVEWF
UniProt P48382: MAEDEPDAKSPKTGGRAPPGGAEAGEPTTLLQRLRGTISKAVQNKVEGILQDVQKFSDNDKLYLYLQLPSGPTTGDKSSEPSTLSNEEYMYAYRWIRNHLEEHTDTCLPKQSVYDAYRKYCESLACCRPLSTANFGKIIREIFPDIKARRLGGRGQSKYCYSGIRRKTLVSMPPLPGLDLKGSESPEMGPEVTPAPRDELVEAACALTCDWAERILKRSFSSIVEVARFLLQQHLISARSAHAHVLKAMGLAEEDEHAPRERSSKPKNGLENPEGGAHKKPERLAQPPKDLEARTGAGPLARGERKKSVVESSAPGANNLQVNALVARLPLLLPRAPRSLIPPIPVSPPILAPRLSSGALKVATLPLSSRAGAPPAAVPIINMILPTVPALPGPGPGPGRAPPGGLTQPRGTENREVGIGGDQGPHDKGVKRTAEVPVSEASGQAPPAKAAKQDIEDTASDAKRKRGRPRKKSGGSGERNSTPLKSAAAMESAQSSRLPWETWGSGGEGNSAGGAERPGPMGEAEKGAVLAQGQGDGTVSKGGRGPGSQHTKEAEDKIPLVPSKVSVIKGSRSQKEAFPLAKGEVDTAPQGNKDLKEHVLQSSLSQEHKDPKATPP
UniProt Q9Y4L5, whole entry, looked up: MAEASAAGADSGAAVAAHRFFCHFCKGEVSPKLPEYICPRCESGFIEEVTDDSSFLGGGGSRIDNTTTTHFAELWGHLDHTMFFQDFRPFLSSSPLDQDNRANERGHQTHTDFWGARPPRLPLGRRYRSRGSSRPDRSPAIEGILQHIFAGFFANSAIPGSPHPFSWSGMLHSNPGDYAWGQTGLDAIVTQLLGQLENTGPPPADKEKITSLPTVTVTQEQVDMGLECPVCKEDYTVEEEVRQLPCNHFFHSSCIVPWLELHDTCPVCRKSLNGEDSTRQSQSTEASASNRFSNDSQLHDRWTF
UniProt Q9H4X1: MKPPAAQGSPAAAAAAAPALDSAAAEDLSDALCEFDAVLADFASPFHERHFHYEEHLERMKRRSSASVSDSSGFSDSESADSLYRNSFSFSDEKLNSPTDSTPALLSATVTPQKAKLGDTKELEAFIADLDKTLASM

Compound: COc1cc2nc(-c3cc(F)ccc3O)nc(N[C@@H]3CNC[C@H]3C(C)(C)O)c2cc1OC
Assay: log2 fold change, soluble protein after heating vs DMSO (PISA); higher = thermal stabilisation; K562 cells, 10 uM, 30 min; active = over 0.2 and 3.5 SD of the protein, either way, in both replicates (recomputed)
Outline: (§1)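 Soluble protein was quantified by TMTpro 16plex LC-MS/MS after channel sums were equalised. It was obtained as the supernatant after 21,000xg for 90 min from pooled aliquots of K562 cells (2×10^6 cells/mL, 10 μM compound, 30 min) heated for 3 min across 48°C-58°C and extracted in PBS with 0.5% NP-40 at 4°C. Thermal stability values are relative to control samples and come from duplicates. They are given as log2 fold changes.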

Target | log2 fold change
RHD (UniProt Q02161) | inactive: -0.113
RFWD3 (UniProt Q6PCD5) | inactive: 0.157
RNF24 isoform 2 (UniProt Q9Y225) | inactive: -0.02
RGN (UniProt Q15493) | inactive: 0.114
RNF220 isoform 3 (UniProt Q5VTB9) | inactive: -0.153
RFX3 (UniProt P48380) | inactive: -0.384
RBMY1E (UniProt A6NEQ0) | active: -0.476
RING1 (UniProt Q06587) | inactive: -0.021
RBM48 isoform 2 (UniProt Q5RL73) | inactive: -0.046
RNF169 (UniProt Q8NCN4) | inactive: -0.063
RHOXF2B (UniProt P0C7M4) | inactive: -0.165
RNASE4 (UniProt P34096) | inactive: 0.045
RNF170 (UniProt Q96K19) | inactive: -0.107
RNF185 (UniProt Q96GF1) | inactive: -0.175
RIMKLB (UniProt Q9ULI2) | inactive: -0.025
RNF141 (UniProt Q8WVD5) | inactive: -0.061
RC3H2 (UniProt Q9HBD1) | inactive: -0.144
RNF130 (UniProt Q86XS8) | inactive: 0.155
RFX5 (UniProt P48382) | inactive: 0.003

Compound: COc1cc2ncnc(Nc3ccc(F)c(Cl)c3)c2cc1OCCCN1CCOCC1 [gefitinib]
Assay: as above
Outline: as §1

Target | log2 fold change
RHD (UniProt Q02161) | inactive: -0.125
RMDN2 isoform 2 (UniProt Q96LZ7) | inactive: -0.418
RNF24 isoform 2 (UniProt Q9Y225) | inactive: -0.005
RGN (UniProt Q15493) | inactive: -0.041
RERE (UniProt Q9P2R6) | inactive: 0.012
RNF139 (UniProt Q8WU17) | inactive: -0.011
RBMY1E (UniProt A6NEQ0) | inactive: -0.07
RING1 (UniProt Q06587) | inactive: 0.026
RBM48 isoform 2 (UniProt Q5RL73) | inactive: -0.024
RHBDD2 isoform 2 (UniProt Q6NTF9) | inactive: -0.168
RNASE4 (UniProt P34096) | inactive: -0.149
RNF170 (UniProt Q96K19) | inactive: 0.18
RGS14 (UniProt O43566) | inactive: -0.01
RNF185 (UniProt Q96GF1) | inactive: 0.007
RGP1 (UniProt Q92546) | inactive: 0.019
RIMKLB (UniProt Q9ULI2) | inactive: 0.02
RNF115 (UniProt Q9Y4L5) | inactive: -0.053
RNF141 (UniProt Q8WVD5) | inactive: 0.124
RGCC (UniProt Q9H4X1) | inactive: 0.164
RNF111 isoform 3 (UniProt Q6ZNA4) | inactive: 0.016
RFX5 (UniProt P48382) | inactive: 0.092

Compound: COc1cccc2cc(-c3nc([C@H]4CC[C@H](C(=O)O)CC4)n4ncnc(N)c34)[nH]c12
Assay: as above
Outline: as §1

Target | log2 fold change
RMDN2 isoform 2 (UniProt Q96LZ7) | inactive: 0.191
RERE (UniProt Q9P2R6) | inactive: -0.064
RNF139 (UniProt Q8WU17) | inactive: 0.176
RBMY1E (UniProt A6NEQ0) | inactive: 0.126
RING1 (UniProt Q06587) | inactive: 0.033
RHBDD2 isoform 2 (UniProt Q6NTF9) | inactive: -0.043
RNASE4 (UniProt P34096) | inactive: -0.241
RNF170 (UniProt Q96K19) | inactive: 0.125
RGS14 (UniProt O43566) | inactive: 0.101
RNF185 (UniProt Q96GF1) | inactive: -0.016
RGP1 (UniProt Q92546) | inactive: 0.04
RIMKLB (UniProt Q9ULI2) | inactive: -0.001
RNF130 (UniProt Q86XS8) | inactive: 0.121
RNASEL (UniProt Q05823) | inactive: -0.33

Compound: CS(=O)(=O)CCNCc1ccc(-c2ccc3ncnc(Nc4ccc(OCc5cccc(F)c5)c(Cl)c4)c3c2)o1 [lapatinib]
Assay: as above
Outline: as §1

Target | log2 fold change
RHD (UniProt Q02161) | inactive: 0.021
RFWD3 (UniProt Q6PCD5) | inactive: -0.157
RNF24 isoform 2 (UniProt Q9Y225) | inactive: -0.043
RGN (UniProt Q15493) | inactive: -0.158
RNF220 isoform 3 (UniProt Q5VTB9) | inactive: 0.261
RFX3 (UniProt P48380) | inactive: 0.002
RBMY1E (UniProt A6NEQ0) | inactive: 0.044
RING1 (UniProt Q06587) | inactive: 0.014
RBM48 isoform 2 (UniProt Q5RL73) | inactive: 0.011
RNF169 (UniProt Q8NCN4) | inactive: -0.038
RHOXF2B (UniProt P0C7M4) | inactive: -0.077
RNASE4 (UniProt P34096) | inactive: -0.011
RNF170 (UniProt Q96K19) | inactive: 0.027
RNF185 (UniProt Q96GF1) | inactive: -0.111
RIMKLB (UniProt Q9ULI2) | inactive: -0.022
RNF141 (UniProt Q8WVD5) | inactive: -0.103
RC3H2 (UniProt Q9HBD1) | inactive: 0.006
RNF130 (UniProt Q86XS8) | inactive: -0.089
RFX5 (UniProt P48382) | inactive: -0.102
